# PubChem BioAssay AID686938 | Drosophila RNAi Screening Center, 2013
# Aim: 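Fly genes required for calcium entry once internal stores are emptied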 (primary screen)
# Cells: Drosophila S2R+ cells
# Knock-down reagent: long dsRNA against Drosophila genes, about 0.25 µg dsRNA per well, roughly 10,000 cells
# Duration: 5 days of knock-down before the calcium assay
# Conditions: thapsigargin (SERCA pump blocker) to empty calcium stores; entry signal taken 4 min after adding it
# Read-out: 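Per-well fluo-4 fluorescence in two replicates, unnormalised, measured in resting cells and 4 min after store depletion by the SERCA blocker thapsigargin; ratio of the two present in few wells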
# Direction: calcium entry signal: higher = stronger calcium signal after store depletion; entry to resting ratio: higher = more calcium entry relative to resting level; resting calcium signal: higher = higher resting calcium signal
# Rule for the call: 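Called when the plate z-score of the entry-to-rest ratio, mean of duplicates, falls below −3; wells with low overall dye signal (Fmax z below −2) or more than five off-targets excluded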
# Calls: active = strongly reduced calcium entry; inactive = no strong reduction
# In all, the deposit lists about 23,000 reagents; shown is a random part of those with a known target gene and a result. In the full data, 75 (0.33%) were called active. 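Raw plate signals without normalisation; calls rest on plate z-scores that were not deposited; ratio present for only 364 wells.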 Reagent sequences are not shown. The record does not give: the dose of the treatment.
target gene,PubChem SID,"calcium entry signal, replicate 1 (fluorescence units)","calcium entry signal, replicate 2 (fluorescence units)",entry to resting ratio,"resting calcium signal, replicate 1 (fluorescence units)","resting calcium signal, replicate 2 (fluorescence units)",activity call
Lam (GeneID 33782),SID104183151,1.72e7,1.81e7,,9.68e6,9.49e6,inactive
Dap160 (GeneID 35378),SID104181626,1.65e7,3.41e7,,7.80e6,3.01e7,inactive
Dap160 (GeneID 35378),SID104183105,3.48e7,,,1.81e7,,inactive
CG14024 (GeneID 33760),SID104180660,3.60e7,3.57e7,,1.98e7,1.66e7,inactive
CG14024 (GeneID 33760),SID104182146,4.44e7,,,1.95e7,,inactive
CG32809 (GeneID 31121),SID104198299,3.73e7,4.56e7,,1.63e7,2.24e7,inactive
CG32809 (GeneID 31121),SID104198384,3.50e7,4.20e7,,1.66e7,2.10e7,inactive
mon2 (GeneID 326157),SID104182904,2.80e7,4.09e7,,1.45e7,1.87e7,inactive
Dhc98D (GeneID 43379),SID104196437,3.65e7,5.16e7,,1.80e7,2.07e7,inactive
CG9467 (GeneID 41207),SID104196290,3.41e7,4.47e7,,1.51e7,1.93e7,inactive
CG32591 (GeneID 318104),SID104198855,3.33e7,4.35e7,,1.73e7,1.94e7,inactive
Vha36-2 (GeneID 36328),SID104186086,2.53e7,4.19e7,,1.40e7,1.89e7,inactive
CG3328 (GeneID 37871),SID104184149,4.06e7,,,2.01e7,,inactive
CycT (GeneID 39961),SID104190916,2.08e7,2.15e7,,1.82e7,1.47e7,active
CycT (GeneID 39961),SID104202661,2.15e7,1.90e7,,1.39e7,1.08e7,inactive
Grl65a (GeneID 117342),SID104188629,2.62e7,4.26e7,,1.39e7,1.87e7,inactive
CG14238 (GeneID 43195),SID104194524,2.45e7,4.07e7,,1.42e7,1.80e7,inactive
Klp98A (GeneID 43310),SID104196516,1.69e7,3.94e7,,9.39e6,1.69e7,inactive
Klp98A (GeneID 43310),SID104201482,2.70e7,3.79e7,,1.53e7,1.63e7,inactive
CG14715 (GeneID 41403),SID104194730,2.83e7,3.01e7,,1.26e7,1.41e7,inactive
polybromo (GeneID 42954),SID104194099,5.26e7,4.08e7,,2.49e7,2.00e7,inactive
l(1)G0469 (GeneID 32371),SID104199204,2.12e7,2.55e7,,1.01e7,1.15e7,inactive
l(1)G0469 (GeneID 32371),SID104199254,2.70e7,3.76e7,,1.43e7,1.77e7,inactive
Art6 (GeneID 41699),SID104196375,3.53e7,4.05e7,,1.69e7,6.92e7,inactive
Rbpn-5 (GeneID 37395),SID104184232,3.74e7,,,1.91e7,,inactive
Top2 (GeneID 35225),SID104183251,3.25e7,3.88e7,,1.97e7,2.13e7,inactive
Spp (GeneID 33227),SID104180120,4.23e7,,,2.33e7,,inactive
mRpS35 (GeneID 38345),SID104188343,3.70e7,4.42e7,,1.73e7,1.73e7,inactive
CheA29a (GeneID 246659),SID104201216,2.30e7,3.56e7,,1.22e7,1.56e7,inactive
CG13074 (GeneID 39760),SID104189749,3.83e7,5.61e7,,1.95e7,2.35e7,inactive
CG3184 (GeneID 31608),SID104198081,3.67e7,4.02e7,,1.71e7,1.86e7,inactive
CG10859 (GeneID 34756),SID104181902,3.85e7,,,1.78e7,,inactive
CG13364 (GeneID 50364),SID104197690,2.86e7,4.17e7,2,1.46e7,1.74e7,inactive
CG13364 (GeneID 50364),SID104201055,3.77e7,4.93e7,,1.88e7,2.04e7,inactive
Col4a1 (GeneID 33727),SID104183083,3.80e7,,,2.04e7,,inactive
Rrp5 (GeneID 42899),SID104195654,3.69e7,2.51e7,,1.89e7,1.36e7,inactive
CG32708 (GeneID 318161),SID104198203,1.68e7,4.42e7,,9.32e6,1.98e7,inactive
CG33143 (GeneID 37583),SID104183943,3.27e7,2.98e7,,1.61e7,1.51e7,inactive
CG33143 (GeneID 37583),SID104184246,3.07e7,3.37e7,,1.62e7,1.57e7,inactive
S2P (GeneID 36262),SID104187103,3.16e7,3.81e7,,1.65e7,1.67e7,inactive

Hits, among the entries above:
target gene,PubChem SID,"calcium entry signal, replicate 1 (fluorescence units)","calcium entry signal, replicate 2 (fluorescence units)",entry to resting ratio,"resting calcium signal, replicate 1 (fluorescence units)","resting calcium signal, replicate 2 (fluorescence units)",activity call
CycT (GeneID 39961),SID104190916,2.08e7,2.15e7,,1.82e7,1.47e7,active
